# The other results are listed elsewhere or left out. Most entries show no effect beyond the scatter of the controls.
# The chains behind the UniProt entries cited, without tags or fusion partners. Where a name states a change or a piece, a line headed by the entry shows the natural chain unless it says otherwise.
# UniProt Q6PE01: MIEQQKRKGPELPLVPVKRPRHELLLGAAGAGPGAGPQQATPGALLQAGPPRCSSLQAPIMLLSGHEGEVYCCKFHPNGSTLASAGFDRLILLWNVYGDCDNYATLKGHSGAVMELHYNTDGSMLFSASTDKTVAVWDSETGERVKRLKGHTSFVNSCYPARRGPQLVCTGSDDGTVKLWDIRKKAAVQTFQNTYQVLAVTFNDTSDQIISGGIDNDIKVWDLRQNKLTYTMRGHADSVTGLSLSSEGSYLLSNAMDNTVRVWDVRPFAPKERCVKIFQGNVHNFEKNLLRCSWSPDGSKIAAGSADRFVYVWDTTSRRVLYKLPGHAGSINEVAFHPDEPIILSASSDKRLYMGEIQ
# UniProt Q6EDY6, whole entry: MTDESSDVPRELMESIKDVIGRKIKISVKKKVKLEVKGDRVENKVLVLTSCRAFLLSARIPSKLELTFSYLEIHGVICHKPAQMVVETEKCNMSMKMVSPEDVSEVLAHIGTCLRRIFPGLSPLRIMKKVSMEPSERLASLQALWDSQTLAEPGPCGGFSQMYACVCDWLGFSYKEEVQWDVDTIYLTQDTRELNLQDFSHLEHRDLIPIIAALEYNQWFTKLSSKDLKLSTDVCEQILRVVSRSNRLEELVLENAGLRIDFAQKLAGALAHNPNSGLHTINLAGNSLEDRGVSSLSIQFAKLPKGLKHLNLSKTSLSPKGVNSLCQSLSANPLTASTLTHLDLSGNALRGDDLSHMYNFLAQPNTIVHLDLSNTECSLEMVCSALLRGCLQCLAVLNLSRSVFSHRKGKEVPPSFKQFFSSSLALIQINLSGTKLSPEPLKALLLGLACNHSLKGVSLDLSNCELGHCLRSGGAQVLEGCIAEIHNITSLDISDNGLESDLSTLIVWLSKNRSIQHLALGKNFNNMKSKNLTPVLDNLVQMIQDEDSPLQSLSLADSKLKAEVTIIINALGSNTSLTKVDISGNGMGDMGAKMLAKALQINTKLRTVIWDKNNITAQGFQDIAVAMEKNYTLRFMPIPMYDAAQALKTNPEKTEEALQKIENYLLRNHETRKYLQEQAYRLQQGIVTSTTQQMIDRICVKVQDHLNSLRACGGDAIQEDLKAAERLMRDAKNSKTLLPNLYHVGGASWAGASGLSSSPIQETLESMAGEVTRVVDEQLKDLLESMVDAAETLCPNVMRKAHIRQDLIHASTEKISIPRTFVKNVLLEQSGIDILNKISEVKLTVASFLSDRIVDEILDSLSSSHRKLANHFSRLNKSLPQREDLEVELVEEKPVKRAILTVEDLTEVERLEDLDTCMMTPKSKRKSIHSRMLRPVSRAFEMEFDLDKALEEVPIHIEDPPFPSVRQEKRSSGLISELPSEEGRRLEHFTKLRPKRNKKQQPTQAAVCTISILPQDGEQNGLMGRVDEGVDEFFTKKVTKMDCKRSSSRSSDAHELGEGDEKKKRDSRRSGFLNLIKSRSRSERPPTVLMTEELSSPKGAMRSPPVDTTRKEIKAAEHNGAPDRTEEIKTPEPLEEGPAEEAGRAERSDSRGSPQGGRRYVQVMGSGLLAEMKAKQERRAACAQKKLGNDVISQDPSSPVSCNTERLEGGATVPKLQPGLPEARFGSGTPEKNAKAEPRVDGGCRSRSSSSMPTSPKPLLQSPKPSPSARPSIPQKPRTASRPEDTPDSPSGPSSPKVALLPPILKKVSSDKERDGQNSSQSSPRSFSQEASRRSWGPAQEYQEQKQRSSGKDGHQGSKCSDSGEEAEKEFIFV
# UniProt Q69ZZ9: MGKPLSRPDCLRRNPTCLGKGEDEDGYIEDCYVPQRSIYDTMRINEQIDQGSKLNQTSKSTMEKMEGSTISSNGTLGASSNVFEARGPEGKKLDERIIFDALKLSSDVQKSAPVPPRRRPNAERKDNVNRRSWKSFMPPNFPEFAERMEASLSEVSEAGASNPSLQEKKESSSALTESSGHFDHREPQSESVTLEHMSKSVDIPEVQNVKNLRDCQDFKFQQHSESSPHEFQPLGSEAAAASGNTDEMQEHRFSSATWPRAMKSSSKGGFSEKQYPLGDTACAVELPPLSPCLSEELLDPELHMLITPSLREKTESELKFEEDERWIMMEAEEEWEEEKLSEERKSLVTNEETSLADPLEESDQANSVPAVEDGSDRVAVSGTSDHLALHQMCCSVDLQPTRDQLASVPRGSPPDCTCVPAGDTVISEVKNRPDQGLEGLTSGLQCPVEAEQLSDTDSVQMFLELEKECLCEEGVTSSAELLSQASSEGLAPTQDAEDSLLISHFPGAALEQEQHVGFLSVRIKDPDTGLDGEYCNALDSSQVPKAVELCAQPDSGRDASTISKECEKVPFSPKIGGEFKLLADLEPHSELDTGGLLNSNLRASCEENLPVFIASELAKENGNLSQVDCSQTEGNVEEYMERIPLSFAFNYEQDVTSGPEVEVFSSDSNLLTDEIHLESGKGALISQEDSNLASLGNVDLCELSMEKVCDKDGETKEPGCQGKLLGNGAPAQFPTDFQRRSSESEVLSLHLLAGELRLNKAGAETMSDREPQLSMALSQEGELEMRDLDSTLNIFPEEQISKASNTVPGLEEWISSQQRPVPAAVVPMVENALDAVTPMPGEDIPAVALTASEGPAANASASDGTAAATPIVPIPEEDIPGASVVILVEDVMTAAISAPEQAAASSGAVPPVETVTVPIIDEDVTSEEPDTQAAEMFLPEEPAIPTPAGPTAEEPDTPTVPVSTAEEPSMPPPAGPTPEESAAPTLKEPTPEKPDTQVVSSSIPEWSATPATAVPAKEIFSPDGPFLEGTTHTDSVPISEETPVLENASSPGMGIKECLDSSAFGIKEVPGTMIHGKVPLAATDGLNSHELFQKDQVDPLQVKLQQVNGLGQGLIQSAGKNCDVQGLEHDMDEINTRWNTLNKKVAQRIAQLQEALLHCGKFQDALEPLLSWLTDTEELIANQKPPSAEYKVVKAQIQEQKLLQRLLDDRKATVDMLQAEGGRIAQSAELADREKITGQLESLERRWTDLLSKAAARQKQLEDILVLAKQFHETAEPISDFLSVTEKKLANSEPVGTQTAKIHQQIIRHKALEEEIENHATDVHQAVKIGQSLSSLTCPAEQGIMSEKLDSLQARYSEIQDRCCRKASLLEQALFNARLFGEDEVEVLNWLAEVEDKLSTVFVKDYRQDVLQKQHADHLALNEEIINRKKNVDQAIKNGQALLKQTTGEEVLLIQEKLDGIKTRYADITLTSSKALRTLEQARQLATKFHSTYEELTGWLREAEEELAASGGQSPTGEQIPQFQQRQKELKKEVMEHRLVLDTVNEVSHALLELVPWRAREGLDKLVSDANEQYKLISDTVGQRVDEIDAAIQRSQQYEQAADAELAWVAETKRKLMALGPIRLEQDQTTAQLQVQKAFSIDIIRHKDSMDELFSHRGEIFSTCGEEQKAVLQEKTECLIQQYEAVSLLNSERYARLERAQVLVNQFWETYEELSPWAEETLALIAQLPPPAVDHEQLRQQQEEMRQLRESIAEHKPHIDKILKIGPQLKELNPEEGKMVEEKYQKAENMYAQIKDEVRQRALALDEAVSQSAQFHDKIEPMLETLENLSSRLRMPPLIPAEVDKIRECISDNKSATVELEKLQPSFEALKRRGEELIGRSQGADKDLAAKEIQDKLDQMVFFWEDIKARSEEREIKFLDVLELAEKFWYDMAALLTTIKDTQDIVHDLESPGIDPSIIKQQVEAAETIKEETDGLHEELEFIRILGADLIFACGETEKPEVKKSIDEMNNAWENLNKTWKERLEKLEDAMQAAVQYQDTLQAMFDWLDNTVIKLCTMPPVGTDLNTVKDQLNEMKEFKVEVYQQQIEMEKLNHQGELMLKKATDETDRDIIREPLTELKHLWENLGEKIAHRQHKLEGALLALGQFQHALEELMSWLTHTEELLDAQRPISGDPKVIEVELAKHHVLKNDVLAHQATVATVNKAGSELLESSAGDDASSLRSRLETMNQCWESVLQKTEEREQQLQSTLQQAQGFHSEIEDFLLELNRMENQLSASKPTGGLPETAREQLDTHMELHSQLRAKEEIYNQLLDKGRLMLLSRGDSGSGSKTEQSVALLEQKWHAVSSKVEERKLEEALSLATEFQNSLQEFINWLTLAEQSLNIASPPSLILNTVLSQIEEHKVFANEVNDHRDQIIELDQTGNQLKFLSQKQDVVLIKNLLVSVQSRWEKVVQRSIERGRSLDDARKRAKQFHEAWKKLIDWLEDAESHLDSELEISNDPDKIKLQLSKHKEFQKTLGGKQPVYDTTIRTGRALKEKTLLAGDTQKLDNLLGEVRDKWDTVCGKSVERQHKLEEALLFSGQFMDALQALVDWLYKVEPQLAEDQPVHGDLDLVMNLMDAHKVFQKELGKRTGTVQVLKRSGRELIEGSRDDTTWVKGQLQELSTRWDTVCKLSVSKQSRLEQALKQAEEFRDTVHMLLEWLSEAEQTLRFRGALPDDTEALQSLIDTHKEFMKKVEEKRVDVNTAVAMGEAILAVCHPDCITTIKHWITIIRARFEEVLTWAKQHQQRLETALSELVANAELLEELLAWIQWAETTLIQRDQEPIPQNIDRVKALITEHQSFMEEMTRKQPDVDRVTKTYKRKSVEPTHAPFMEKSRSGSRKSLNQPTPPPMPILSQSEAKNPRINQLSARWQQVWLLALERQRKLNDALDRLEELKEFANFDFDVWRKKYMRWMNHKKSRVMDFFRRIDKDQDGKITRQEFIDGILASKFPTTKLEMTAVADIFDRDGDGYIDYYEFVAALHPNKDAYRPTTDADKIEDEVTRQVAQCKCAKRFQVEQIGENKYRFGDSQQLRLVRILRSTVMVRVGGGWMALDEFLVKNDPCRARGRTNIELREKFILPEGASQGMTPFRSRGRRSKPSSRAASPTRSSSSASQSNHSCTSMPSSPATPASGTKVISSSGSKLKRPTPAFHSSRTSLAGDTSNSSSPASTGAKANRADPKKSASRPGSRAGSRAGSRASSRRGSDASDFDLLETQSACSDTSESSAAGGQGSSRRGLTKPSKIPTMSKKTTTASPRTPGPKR
# UniProt Q6PE65: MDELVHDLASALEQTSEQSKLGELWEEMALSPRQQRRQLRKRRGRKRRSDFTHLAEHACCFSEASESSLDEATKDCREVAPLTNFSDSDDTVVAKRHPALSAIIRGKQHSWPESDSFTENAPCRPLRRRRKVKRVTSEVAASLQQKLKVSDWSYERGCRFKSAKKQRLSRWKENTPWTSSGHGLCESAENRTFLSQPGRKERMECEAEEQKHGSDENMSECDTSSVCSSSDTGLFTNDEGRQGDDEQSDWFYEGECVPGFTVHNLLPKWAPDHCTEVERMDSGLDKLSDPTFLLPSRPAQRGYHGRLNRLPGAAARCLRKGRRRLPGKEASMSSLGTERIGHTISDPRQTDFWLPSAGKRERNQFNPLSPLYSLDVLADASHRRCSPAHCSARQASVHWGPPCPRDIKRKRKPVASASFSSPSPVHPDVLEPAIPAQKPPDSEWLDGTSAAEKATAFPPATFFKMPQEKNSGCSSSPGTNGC
# UniProt Q6PGB6: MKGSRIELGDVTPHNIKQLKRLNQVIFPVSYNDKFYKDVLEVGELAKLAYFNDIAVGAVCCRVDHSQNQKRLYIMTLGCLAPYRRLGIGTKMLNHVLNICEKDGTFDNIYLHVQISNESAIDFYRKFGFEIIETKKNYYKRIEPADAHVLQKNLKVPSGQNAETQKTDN
# UniProt Q6NZB0: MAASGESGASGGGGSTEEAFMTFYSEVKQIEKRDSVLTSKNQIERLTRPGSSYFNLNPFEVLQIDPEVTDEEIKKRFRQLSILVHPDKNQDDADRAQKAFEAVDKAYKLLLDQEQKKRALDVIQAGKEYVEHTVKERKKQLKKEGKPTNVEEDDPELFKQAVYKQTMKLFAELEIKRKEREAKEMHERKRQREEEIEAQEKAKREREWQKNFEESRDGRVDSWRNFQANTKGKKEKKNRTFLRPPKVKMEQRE
# UniProt Q6NZB1, whole entry: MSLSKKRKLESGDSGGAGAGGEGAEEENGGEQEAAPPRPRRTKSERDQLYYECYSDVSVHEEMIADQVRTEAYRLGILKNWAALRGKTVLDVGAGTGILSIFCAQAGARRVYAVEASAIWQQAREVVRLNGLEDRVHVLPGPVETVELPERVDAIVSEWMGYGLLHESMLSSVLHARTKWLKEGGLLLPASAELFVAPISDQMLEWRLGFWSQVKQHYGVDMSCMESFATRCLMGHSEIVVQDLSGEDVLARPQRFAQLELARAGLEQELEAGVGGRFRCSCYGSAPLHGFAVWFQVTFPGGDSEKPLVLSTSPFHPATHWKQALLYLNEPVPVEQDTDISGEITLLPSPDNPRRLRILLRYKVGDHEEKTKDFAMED
# Compound: CN[C@@H]1C[C@H]2O[C@@](C)([C@@H]1OC)n1c3ccccc3c3c4c(c5c6ccccc6n2c5c31)C(=O)NC4 [staurosporine]
# Assay: log2 fold change of tryptic peptide abundance, ligand vs vehicle (limited proteolysis) (log2 ratio); higher = more trypsin-susceptible (destabilized)
# Details: ligand concentration: 20 uM; sample: mouse liver crude lysate; replicate design: treated separately
row,Target,log2 fold change
1,"UniProt Q6P1G0 (peptide sequence: VQTLAGDTAR, peptide start residue: 1145)",-0.566
2,"UniProt Q6A4J8 (peptide sequence: HTGYVGLK, peptide start residue: 211)",-0.503
3,"UniProt Q6NV66 (peptide sequence: TFACQDCGK, peptide start residue: 605)",0.372
4,"UniProt Q6PE01 (peptide sequence: KGPELPLVPVK, peptide start residue: 8)",0.265
5,"UniProt Q6EDY6 (peptide sequence: LTVASFLSDR, peptide start residue: 843)",-0.22
6,"UniProt Q6S5J6 (peptide sequence: NTASLNSR, peptide start residue: 19)",0.144
7,"UniProt Q6PDE7 (peptide sequence: GNLGSVAPPASR, peptide start residue: 88)",-0.0775
8,"UniProt Q69ZZ9 (peptide sequence: ELIEGSRDDTTWVK, peptide start residue: 6683)",-0.481
9,"UniProt Q6PE65 (peptide sequence: HPALSAIIR, peptide start residue: 97)",0.287
10,"UniProt Q6PGB6 (peptide sequence: RIEPADAHVLQK, peptide start residue: 141)",-0.421
11,"UniProt Q6NZB0 (peptide sequence: RQREEEIEAQEK, peptide start residue: 190)",0.573
12,"UniProt Q6NZB1 (peptide sequence: LGFWSQVK, peptide start residue: 208)",-0.0898

# From the supplement of paper PMC12819154, “High-throughput peptide-centric local stability assay extends protein–ligand identification to membrane proteins, tissues and bacteria” (Nature Structural & Molecular Biology, 2025)
